# The supplement of paper PMC8846439
# Some of the results follow. Many values rest on one well or one pass, so single values are uncertain.
# System: Trypanosoma brucei brucei bloodstream form L262P (kDNA-independent)
# Test: viability Z-score (nuclei count per well, median-polish normalised, relative to plate distribution); higher = more viable parasites (negative = growth inhibition)
# Conditions: 4 days; compound concentration: 10 µM (some Prestwick/PKE rows may be 1 µM / not distinguished)
row,Compound,viability Z-score
1,CN[C@H]1C[C@@H]2O[C@](C)([C@H]1OC)n1c3ccccc3c3c4c(c5c6ccccc6n2c5c31)C(=O)NC4 [Staurosporine],-6.69
2,N#C/C1=C/C=C/C=C1/CO/C2=C/C=C(C=C2)N4C(C)=CC(/C=C3/C(=O)NC(=[S])NC3=O)=C4C,-5.76
3,CN1C(=O)[C@]23CC4=CC=C[C@H](O)[C@H]4N2C(=O)[C@@]1(CO)SS3 [Gliotoxin],-6.59
4,O=c1[nH]c2ccccc2n1C1CCN(CCCC(c2ccc(F)cc2)c2ccc(F)cc2)CC1 [Pimozide],-3.25
